Results from the supplement of paper PMC7666118.
The list shows a part of the results.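 How the source made its calls: active = dose-dependent thermal stabilisation significant by F-test of dose-response against flat model at 10% FDR; inactive = not significant.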

Amino acid sequences for entries named in this document (tags omitted). A change or cut given only in a name is not applied to a line headed by its entry.
UniProt Q9Y2F5: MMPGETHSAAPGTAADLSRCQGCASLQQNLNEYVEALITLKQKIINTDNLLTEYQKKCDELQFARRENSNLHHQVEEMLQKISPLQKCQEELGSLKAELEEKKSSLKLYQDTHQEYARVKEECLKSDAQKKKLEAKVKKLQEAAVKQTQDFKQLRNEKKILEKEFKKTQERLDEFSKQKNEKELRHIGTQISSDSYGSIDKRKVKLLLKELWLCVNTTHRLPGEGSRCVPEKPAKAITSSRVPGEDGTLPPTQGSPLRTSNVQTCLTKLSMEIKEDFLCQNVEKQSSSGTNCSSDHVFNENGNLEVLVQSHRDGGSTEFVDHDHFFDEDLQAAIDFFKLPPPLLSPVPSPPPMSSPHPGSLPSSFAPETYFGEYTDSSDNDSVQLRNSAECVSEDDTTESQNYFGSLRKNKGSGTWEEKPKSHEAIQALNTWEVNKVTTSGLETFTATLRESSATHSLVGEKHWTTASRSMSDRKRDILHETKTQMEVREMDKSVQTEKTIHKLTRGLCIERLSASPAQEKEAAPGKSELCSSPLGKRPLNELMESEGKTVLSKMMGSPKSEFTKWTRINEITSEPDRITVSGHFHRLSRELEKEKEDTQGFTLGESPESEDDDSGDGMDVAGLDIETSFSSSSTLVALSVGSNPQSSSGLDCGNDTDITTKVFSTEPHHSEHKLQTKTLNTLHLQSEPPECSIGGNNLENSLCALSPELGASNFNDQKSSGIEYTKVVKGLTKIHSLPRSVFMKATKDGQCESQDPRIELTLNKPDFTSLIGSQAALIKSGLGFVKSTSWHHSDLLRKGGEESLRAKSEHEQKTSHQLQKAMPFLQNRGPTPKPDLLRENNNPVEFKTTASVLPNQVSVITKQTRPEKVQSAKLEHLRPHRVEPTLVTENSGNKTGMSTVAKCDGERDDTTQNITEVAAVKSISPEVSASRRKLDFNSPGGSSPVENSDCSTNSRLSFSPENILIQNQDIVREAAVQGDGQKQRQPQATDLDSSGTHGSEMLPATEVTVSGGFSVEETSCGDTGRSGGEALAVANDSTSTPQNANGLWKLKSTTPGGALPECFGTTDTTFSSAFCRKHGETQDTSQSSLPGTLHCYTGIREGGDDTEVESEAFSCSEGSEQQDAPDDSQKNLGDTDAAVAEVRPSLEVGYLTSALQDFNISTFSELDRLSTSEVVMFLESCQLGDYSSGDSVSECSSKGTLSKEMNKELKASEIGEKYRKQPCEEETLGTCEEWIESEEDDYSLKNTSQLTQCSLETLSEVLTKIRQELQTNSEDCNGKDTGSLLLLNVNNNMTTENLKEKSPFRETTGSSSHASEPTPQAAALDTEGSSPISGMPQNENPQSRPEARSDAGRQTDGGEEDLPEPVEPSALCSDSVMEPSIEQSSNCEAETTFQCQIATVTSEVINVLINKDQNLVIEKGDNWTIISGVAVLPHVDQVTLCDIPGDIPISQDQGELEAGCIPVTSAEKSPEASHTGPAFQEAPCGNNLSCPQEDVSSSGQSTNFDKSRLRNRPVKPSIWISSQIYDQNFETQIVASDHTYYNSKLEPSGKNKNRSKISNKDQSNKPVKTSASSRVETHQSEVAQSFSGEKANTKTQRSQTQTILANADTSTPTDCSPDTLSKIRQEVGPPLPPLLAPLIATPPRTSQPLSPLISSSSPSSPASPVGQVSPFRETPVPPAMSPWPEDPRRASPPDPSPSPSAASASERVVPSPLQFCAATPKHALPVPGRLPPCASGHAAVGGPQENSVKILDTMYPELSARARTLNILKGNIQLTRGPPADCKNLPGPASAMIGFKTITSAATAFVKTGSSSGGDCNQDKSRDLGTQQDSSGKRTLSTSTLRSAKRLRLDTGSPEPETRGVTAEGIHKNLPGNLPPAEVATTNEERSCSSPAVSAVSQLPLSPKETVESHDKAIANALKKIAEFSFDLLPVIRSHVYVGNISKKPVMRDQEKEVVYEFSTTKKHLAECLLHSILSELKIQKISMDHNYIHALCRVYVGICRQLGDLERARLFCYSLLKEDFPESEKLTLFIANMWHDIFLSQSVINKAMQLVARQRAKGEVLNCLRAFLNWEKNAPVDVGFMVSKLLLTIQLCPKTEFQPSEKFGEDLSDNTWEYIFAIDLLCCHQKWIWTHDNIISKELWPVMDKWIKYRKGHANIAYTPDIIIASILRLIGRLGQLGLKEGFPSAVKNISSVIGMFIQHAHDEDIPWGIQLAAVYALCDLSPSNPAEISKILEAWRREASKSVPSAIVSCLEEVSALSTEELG
UniProt Q9NSK0: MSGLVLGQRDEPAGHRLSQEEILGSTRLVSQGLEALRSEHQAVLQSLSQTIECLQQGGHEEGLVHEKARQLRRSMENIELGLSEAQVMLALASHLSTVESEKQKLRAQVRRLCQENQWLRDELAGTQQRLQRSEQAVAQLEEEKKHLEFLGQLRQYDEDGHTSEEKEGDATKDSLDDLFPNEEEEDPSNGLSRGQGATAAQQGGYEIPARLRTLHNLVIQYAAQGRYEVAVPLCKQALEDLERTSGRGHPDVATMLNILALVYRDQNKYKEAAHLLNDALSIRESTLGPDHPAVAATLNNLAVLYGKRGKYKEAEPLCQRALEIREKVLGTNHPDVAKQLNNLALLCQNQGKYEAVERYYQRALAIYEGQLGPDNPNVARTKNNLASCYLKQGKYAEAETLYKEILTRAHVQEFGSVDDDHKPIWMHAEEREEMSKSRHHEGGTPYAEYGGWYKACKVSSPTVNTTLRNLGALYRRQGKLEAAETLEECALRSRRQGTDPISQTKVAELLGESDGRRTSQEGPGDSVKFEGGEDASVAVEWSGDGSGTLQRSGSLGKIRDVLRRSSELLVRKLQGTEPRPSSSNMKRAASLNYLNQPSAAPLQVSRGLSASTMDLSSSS
UniProt Q5T440: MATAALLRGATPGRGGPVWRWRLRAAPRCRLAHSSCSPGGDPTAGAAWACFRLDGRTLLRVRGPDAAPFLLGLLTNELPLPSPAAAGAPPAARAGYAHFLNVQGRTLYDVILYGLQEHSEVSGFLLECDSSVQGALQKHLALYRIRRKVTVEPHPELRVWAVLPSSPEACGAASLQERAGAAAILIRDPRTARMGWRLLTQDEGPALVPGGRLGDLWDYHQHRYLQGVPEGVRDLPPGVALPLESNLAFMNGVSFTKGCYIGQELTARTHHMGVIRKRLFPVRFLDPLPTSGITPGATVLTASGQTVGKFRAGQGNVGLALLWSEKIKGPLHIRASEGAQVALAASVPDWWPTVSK
UniProt Q9BUJ2: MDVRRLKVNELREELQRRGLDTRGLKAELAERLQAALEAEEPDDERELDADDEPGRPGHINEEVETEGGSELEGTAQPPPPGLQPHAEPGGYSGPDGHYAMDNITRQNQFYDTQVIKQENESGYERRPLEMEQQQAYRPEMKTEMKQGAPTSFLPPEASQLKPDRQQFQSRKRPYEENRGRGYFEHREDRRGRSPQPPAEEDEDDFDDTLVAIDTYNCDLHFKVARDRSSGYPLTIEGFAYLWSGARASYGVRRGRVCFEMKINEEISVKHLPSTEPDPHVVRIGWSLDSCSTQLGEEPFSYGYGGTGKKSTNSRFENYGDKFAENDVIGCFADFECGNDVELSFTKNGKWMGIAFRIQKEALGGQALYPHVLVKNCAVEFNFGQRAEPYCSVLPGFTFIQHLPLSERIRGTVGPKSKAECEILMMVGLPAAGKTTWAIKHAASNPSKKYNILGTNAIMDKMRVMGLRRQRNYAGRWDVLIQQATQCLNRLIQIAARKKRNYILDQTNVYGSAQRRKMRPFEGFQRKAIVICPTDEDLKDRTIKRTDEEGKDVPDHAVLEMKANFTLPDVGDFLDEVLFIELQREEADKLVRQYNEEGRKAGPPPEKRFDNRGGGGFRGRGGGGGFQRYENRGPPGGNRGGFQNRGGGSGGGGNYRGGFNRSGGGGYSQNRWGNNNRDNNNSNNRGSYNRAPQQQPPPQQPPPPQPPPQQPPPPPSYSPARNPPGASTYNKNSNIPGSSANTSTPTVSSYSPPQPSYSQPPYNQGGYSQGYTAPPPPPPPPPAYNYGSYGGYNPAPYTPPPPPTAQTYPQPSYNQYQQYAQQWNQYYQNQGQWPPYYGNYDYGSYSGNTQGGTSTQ
UniProt O60921: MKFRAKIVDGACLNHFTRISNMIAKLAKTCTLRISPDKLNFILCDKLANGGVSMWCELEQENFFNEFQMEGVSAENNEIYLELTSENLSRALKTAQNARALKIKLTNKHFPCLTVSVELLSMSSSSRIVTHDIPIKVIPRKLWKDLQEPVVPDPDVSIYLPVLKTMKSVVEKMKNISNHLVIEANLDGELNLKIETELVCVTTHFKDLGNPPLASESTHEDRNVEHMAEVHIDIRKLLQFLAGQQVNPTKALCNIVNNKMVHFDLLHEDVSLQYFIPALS
UniProt O95757: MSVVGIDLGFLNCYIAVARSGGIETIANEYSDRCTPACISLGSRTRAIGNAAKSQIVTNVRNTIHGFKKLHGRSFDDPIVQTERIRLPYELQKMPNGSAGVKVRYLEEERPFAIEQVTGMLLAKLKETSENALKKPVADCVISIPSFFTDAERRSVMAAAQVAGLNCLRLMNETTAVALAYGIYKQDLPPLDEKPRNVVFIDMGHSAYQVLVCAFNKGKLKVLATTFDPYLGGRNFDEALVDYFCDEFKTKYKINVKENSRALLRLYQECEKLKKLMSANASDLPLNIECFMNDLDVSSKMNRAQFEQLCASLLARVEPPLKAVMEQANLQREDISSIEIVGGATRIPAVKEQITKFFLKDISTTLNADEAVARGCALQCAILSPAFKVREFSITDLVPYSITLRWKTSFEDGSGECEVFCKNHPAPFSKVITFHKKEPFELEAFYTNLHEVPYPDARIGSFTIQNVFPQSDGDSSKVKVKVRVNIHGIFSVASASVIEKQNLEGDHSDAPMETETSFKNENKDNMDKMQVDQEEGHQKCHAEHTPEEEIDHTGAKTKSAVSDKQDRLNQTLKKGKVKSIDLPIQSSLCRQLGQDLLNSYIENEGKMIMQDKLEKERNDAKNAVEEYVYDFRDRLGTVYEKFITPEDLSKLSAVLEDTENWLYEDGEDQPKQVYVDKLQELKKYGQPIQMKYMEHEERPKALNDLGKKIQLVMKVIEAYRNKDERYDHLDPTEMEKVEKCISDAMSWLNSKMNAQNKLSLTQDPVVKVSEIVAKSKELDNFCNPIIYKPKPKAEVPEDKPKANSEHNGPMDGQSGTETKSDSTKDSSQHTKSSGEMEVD
UniProt Q86YM7: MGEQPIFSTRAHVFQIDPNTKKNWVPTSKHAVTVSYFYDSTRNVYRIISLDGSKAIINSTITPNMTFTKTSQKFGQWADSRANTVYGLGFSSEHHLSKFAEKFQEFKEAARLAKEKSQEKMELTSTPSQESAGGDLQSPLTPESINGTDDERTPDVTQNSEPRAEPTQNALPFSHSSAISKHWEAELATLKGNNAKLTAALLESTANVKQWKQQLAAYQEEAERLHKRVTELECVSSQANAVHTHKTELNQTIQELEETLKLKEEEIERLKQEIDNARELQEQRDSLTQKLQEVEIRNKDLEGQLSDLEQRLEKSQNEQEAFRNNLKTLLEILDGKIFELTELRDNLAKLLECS
UniProt Q07666, whole entry: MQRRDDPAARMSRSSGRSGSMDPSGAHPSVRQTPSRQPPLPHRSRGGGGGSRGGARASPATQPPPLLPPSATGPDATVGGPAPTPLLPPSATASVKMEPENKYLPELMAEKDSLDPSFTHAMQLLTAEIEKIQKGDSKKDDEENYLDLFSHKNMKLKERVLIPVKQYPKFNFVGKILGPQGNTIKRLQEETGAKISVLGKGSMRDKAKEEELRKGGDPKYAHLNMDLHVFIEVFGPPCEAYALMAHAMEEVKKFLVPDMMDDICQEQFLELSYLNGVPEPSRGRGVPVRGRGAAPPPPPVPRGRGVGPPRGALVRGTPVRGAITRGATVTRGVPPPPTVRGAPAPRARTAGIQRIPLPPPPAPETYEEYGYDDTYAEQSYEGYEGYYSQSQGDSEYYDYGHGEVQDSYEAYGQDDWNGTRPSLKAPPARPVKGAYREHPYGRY

Each target was assayed with Nc1nc2c(ncn2[C@@H]2O[C@H](COP(=O)(O)OP(=O)(O)OP(=O)(O)O)[C@@H](O)[C@H]2O)c(=O)[nH]1 (assay: dose-dependent thermal stabilisation call (2D-TPP, DLPTP, 10% FDR) (binary (1 = stabilised)); higher = stabilised by the compound). Settings: system: Jurkat gel-filtered lysate; concentration range 1-500 µM.

Target | dose-dependent thermal stabilisation call
ICE1 (UniProt Q9Y2F5) | inactive: 0
KLC4 (UniProt Q9NSK0) | active: 1
IBA57 (UniProt Q5T440) | inactive: 0
HNRNPUL1 (UniProt Q9BUJ2) | inactive: 0
HUS1 (UniProt O60921) | inactive: 0
HPCAL1 (UniProt P37235) | inactive: 0
HSPA4L (UniProt O95757) | active: 1
HOMER1 (UniProt Q86YM7) | inactive: 0
KHDRBS1 (UniProt Q07666) | active: 1

A second format for some results above:
Target	dose-dependent thermal stabilisation call
HUS1 (UniProt O60921)	inactive: 0
HPCAL1 (UniProt P37235)	inactive: 0
